Data from the supplement of paper PMC12819154, “High-throughput peptide-centric local stability assay extends protein–ligand identification to membrane proteins, tissues and bacteria” (Nature Structural & Molecular Biology, 2025).
The other results are listed elsewhere or left out. Most values lie at the level of the controls, where differences are scatter.

The chains behind the UniProt entries cited, without tags or fusion partners. Where a name states a change or a piece, a line headed by the entry shows the natural chain unless it says otherwise.
UniProt Q86UV5: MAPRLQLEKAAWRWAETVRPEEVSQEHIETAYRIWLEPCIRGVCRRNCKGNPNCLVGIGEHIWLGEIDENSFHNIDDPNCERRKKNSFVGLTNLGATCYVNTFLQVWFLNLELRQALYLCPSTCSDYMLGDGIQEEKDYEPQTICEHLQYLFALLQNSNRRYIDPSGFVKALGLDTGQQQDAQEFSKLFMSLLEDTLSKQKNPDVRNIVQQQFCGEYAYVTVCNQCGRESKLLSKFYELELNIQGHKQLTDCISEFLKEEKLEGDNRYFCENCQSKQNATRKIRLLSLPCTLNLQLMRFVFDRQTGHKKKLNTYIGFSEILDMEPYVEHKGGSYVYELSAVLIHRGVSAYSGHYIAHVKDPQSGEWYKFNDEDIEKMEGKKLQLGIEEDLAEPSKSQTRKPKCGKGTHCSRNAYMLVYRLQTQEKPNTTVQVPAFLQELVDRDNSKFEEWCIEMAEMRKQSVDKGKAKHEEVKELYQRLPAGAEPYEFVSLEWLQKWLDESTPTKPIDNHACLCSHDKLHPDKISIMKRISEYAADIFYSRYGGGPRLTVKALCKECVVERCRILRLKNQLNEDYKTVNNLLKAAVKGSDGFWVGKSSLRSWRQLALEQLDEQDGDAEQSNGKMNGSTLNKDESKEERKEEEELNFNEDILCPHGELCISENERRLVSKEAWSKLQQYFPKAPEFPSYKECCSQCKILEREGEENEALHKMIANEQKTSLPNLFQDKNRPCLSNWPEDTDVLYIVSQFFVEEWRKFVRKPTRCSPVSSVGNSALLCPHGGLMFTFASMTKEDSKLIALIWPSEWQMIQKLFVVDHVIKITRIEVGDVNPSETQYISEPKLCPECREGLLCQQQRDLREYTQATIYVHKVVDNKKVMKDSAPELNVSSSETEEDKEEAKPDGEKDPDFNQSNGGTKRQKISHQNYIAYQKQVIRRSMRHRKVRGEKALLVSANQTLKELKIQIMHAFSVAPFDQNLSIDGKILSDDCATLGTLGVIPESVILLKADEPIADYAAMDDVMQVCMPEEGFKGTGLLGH
UniProt Q8IW35: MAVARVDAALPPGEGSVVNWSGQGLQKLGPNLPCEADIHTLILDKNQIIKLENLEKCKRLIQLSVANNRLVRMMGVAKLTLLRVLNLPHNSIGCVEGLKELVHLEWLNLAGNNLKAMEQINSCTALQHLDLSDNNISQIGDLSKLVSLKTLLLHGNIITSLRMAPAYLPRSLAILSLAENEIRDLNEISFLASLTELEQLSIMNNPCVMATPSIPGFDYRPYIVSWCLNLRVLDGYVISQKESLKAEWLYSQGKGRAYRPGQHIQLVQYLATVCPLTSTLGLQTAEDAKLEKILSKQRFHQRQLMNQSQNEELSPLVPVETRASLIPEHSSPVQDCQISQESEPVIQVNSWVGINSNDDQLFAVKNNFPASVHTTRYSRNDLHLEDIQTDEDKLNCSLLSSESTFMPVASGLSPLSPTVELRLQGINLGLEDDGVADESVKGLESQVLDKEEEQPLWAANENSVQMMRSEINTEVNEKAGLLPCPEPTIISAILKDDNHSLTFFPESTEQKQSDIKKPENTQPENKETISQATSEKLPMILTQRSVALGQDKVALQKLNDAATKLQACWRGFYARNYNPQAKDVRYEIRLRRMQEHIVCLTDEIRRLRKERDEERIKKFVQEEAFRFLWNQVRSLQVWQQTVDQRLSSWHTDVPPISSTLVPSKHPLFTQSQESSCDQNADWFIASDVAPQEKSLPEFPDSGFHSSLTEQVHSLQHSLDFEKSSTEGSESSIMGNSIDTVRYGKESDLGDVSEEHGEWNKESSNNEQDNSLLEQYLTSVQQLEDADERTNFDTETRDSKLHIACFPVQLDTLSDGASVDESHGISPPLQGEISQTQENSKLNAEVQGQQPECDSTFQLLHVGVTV
UniProt Q8IV48: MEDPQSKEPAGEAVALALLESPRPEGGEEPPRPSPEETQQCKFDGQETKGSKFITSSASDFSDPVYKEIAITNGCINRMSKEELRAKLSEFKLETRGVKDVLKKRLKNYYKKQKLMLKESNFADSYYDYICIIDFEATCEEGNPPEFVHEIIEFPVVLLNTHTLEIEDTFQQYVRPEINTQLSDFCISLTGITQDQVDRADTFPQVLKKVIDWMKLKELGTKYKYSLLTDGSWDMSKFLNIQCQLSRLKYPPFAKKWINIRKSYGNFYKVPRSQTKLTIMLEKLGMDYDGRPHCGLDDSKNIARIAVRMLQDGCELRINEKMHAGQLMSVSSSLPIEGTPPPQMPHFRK
UniProt Q8IYB3: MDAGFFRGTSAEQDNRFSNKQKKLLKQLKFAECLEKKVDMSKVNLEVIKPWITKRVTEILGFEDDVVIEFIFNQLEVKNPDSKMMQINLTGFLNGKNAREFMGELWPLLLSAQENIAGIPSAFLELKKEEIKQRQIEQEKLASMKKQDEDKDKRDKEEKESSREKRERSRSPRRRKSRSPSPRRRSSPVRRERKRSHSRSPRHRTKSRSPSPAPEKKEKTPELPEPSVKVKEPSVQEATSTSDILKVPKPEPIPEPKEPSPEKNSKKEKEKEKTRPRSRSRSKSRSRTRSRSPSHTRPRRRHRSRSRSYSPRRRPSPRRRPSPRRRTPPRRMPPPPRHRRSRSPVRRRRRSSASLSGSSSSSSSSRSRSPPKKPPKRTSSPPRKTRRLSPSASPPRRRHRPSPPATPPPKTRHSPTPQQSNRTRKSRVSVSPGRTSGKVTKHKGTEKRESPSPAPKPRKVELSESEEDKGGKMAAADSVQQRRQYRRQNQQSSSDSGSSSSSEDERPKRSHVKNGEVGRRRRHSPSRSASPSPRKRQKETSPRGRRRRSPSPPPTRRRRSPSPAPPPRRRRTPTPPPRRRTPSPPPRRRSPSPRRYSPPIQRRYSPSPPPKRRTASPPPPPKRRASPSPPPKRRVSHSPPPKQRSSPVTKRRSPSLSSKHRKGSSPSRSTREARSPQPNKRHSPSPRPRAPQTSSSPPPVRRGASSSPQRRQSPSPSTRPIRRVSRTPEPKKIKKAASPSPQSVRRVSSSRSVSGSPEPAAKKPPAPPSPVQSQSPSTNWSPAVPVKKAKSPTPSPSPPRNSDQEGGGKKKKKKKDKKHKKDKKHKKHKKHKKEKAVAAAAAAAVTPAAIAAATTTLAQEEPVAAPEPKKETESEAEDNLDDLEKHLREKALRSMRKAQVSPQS
UniProt Q86WZ6: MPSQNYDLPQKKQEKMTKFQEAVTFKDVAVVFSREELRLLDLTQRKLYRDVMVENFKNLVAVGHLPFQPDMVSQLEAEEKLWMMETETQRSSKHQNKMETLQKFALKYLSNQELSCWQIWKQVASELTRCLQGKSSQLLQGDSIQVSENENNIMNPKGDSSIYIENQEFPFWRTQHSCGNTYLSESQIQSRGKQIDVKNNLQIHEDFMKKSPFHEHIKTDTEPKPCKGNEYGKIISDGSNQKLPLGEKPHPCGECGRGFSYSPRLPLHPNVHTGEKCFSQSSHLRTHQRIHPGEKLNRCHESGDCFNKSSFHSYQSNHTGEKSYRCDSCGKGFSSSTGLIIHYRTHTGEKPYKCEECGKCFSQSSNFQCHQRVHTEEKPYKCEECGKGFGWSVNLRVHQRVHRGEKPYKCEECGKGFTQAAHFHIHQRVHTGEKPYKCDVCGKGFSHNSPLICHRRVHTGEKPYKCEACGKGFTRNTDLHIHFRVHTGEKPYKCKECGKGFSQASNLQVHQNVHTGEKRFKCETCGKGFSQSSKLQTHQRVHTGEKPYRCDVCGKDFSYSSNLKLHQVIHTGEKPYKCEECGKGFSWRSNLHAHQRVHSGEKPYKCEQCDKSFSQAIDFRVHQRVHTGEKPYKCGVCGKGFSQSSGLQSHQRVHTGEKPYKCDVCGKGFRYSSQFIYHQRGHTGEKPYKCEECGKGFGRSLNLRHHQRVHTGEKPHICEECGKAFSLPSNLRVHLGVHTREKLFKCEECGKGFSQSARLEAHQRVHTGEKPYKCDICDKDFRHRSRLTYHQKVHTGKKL
UniProt Q8IX90, whole entry: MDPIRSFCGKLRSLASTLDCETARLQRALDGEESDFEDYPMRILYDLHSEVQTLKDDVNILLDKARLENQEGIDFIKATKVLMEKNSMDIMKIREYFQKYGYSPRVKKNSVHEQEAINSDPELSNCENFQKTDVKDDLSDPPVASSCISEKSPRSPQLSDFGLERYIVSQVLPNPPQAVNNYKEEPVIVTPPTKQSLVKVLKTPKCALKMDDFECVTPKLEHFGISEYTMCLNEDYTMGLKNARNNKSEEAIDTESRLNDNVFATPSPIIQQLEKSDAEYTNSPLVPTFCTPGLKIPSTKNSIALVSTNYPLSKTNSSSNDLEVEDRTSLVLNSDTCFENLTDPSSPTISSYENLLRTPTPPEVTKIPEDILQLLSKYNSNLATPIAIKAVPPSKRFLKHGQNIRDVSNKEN
UniProt Q8IWU2: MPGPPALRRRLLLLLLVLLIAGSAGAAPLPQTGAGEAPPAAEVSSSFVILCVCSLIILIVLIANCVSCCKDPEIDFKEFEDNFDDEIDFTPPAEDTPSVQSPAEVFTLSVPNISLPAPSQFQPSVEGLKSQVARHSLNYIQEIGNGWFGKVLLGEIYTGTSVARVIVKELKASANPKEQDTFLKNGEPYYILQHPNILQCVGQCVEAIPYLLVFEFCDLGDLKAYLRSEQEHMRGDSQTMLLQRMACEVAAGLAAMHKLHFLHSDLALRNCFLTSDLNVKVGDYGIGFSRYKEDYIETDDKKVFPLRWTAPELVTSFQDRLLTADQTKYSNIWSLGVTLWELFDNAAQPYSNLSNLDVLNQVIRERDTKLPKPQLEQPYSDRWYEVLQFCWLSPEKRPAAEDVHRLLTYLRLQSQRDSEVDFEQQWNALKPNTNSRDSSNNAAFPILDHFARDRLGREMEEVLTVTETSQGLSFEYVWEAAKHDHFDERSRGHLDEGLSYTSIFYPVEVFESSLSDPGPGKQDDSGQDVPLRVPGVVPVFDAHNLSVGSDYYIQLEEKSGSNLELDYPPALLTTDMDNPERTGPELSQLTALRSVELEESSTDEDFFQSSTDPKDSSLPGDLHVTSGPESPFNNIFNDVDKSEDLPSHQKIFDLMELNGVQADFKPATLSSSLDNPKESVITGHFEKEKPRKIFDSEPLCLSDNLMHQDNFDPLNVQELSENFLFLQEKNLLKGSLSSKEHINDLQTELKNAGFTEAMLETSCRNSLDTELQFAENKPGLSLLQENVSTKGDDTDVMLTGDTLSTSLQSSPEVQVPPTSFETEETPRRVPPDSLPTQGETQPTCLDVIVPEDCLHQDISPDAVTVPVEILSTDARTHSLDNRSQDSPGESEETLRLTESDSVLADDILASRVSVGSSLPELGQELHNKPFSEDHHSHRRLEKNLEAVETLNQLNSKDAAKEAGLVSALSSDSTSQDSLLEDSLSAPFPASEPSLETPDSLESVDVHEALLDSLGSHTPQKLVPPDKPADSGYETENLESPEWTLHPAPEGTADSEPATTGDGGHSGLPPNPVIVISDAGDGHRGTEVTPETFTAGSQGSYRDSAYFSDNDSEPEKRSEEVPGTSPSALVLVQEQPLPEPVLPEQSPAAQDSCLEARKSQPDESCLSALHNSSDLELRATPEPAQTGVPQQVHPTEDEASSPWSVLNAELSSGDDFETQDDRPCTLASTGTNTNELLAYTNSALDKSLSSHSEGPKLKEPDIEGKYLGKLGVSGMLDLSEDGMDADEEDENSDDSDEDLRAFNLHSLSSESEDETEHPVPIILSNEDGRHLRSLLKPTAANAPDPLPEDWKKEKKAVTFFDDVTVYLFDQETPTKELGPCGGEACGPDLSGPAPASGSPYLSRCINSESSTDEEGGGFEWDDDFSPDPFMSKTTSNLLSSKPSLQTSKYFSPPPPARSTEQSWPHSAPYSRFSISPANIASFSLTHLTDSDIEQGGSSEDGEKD

compound: Cc1nc(Nc2ncc(C(=O)Nc3c(C)cccc3Cl)s2)cc(N2CCN(CCO)CC2)n1 [dasatinib]; experiment: log2 fold change of tryptic peptide abundance, ligand vs vehicle (limited proteolysis) (log2 ratio); higher = more trypsin-susceptible (destabilized); settings: ligand concentration: 5 uM; sample: K562 cleared lysate

Which log2 fold change does the source give for “MAP7D3 (peptide sequence: IMPIQHTLSVQSASSTVK, peptide start residue: 542) (UniProt Q8IWC1)” here?
The log2 fold change was 0.297.

For “USP48 (peptide sequence: ALLVSANQTLKELK, peptide start residue: 946) (UniProt Q86UV5)”, which log2 fold change is on record?
The log2 fold change was 0.243.

For “CEP97 (peptide sequence: MAPAYLPR, peptide start residue: 163) (UniProt Q8IW35)”, which log2 fold change is on record?
The log2 fold change was -0.373.

Which log2 fold change does the source give for “ERI1 (peptide sequence: LTIMLEK, peptide start residue: 277) (UniProt Q8IV48)” here?
Its log2 fold change is 0.326.

“SRRM1 (peptide sequence: KVELSESEEDKGGK, peptide start residue: 459) (UniProt Q8IYB3)” was tested. Which log2 fold change did it give?
The log2 fold change was 0.323.

How did the log2 fold change turn out when “UniProt Q86WZ6 (peptide sequence: DVMVENFK, peptide start residue: 50)” was run?
The log2 fold change was 0.476.

How did the log2 fold change turn out when “PELP1 (peptide sequence: LKLDVGEAMAPPSHR, peptide start residue: 497) (UniProt Q8IZL8)” was run?
Its log2 fold change is -0.113.

For “MRPL41 (peptide sequence: GIGFLTSGWR, peptide start residue: 40) (UniProt Q8IXM3)”, which log2 fold change is on record?
Its log2 fold change is -0.097.

For “UniProt Q8IX90 (peptide sequence: EEPVIVTPPTK, peptide start residue: 184)”, which log2 fold change is on record?
Its log2 fold change is 0.342.

With “LMTK2 (peptide sequence: STEQSWPHSAPYSR, peptide start residue: 1457) (UniProt Q8IWU2)” as the target, how does the log2 fold change read?
The log2 fold change was -0.332.
